Data reported in PMC4829432, “T-box3 is a ciliary protein and regulates stability of the Gli3 transcription factor to control digit number” (eLife, 2016).
No constants are given. Whether binding was seen depends on the method and setting. Binding seen in cells or lysates may run through a third protein. Some results given as binding are weak or reduced against the parent protein; the word gives no strength. For part of these data: Tags and fused reporters may be left off the sequences shown.

T1: Flag-tagged Kif7 (UniProt B7ZNG0)
T1 sequence: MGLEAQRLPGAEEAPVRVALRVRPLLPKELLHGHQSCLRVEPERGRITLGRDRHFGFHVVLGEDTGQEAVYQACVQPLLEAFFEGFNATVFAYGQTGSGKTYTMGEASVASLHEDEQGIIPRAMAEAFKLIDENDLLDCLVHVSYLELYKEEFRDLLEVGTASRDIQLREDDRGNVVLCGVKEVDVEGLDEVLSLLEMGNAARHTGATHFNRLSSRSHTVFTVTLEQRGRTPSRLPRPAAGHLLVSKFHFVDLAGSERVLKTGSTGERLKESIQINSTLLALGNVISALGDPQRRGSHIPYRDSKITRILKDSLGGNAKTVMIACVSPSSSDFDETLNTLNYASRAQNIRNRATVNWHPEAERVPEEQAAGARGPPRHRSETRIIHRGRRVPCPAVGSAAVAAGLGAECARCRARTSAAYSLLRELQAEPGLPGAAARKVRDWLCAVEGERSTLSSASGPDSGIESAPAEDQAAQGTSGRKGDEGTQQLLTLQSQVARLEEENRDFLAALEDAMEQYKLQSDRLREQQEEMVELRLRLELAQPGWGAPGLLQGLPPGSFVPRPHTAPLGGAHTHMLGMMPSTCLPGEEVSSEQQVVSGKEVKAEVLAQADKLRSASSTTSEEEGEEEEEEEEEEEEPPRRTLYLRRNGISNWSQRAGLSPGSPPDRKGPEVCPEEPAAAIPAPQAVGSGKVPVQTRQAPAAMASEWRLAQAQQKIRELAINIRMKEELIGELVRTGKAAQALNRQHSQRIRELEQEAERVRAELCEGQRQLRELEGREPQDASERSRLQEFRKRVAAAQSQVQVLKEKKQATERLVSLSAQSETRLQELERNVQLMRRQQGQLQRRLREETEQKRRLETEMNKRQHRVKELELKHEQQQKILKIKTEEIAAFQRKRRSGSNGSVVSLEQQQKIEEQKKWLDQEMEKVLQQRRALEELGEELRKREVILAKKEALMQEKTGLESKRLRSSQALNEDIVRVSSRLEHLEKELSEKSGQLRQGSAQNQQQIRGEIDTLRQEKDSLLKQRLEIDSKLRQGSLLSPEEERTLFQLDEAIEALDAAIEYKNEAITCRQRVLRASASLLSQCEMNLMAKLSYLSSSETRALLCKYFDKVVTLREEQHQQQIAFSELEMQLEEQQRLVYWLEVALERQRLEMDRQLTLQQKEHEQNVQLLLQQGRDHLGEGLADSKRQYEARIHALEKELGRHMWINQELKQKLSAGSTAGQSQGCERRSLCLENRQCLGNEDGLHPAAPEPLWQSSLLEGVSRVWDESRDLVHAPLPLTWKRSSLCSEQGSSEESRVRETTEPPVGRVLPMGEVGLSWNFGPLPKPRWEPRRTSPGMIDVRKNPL

T2: Suppressor of fused (Sufu), endogenous mouse protein (mouse (endogenous in E10.5 embryos)) (UniProt Q9Z0P7)
T2 sequence: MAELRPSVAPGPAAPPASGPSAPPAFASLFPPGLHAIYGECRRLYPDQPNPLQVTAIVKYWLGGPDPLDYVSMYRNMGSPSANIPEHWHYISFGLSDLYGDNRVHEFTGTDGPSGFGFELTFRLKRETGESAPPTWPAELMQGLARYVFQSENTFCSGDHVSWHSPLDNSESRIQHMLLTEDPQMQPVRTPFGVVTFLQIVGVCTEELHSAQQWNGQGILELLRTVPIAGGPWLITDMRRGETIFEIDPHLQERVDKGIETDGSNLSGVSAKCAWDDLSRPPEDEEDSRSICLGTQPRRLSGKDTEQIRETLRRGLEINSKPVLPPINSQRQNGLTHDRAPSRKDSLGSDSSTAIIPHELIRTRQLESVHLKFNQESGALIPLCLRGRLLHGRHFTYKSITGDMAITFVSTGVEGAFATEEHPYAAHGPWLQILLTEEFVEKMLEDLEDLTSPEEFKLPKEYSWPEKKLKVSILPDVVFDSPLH

T3: Kif7, endogenous mouse protein (mouse (endogenous in E10.5 embryos)) (UniProt B7ZNG0)
T3 sequence: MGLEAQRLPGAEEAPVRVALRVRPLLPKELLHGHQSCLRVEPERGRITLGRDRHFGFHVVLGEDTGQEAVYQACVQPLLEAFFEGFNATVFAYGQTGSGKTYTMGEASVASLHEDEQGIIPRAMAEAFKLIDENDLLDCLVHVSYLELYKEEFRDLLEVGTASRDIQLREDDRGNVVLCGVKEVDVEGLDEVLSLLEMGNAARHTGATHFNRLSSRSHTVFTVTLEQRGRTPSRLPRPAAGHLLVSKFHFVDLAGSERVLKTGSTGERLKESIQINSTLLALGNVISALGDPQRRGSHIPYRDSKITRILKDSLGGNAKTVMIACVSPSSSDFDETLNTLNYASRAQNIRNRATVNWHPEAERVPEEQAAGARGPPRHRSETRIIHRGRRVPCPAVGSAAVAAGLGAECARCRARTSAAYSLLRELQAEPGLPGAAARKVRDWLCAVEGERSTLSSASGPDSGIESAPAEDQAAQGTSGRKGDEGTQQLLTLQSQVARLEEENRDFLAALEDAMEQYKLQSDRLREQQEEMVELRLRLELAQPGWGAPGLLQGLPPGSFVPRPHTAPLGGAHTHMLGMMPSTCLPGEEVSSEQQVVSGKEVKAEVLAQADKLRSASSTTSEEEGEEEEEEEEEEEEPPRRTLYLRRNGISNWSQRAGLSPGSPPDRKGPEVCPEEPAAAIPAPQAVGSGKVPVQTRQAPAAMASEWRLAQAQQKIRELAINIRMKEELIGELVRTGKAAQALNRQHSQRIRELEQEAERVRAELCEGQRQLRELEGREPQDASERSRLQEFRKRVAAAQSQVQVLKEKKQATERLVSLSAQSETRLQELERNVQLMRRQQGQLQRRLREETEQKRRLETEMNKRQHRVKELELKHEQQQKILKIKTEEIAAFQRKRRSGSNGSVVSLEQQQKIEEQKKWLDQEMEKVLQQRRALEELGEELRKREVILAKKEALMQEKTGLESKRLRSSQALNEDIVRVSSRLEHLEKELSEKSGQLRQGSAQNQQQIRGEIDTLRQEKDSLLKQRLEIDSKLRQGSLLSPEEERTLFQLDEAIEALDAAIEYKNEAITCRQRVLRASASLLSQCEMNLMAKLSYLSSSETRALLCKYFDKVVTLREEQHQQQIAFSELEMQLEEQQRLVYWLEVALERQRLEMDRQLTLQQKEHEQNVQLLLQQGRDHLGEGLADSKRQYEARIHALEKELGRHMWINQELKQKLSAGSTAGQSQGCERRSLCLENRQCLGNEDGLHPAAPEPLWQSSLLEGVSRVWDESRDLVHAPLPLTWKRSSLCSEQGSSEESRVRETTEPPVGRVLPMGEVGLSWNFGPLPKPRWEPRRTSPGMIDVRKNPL


Tests used:
Flag-tagged Kif7 = molecular target: T1, Flag-tagged Kif7; assay: co-IP; Myc- and Flag-tagged proteins overexpressed together in HEK293 cells; lysates in Dignam buffer C; IP for Flag or Myc, immunoblot for Tbx3, Kif7 or Gli3
[1] = molecular target: T2, Suppressor of fused (Sufu), endogenous mouse protein (mouse (endogenous in E10.5 embryos)); assay: co-IP; endogenous proteins; E10.5 whole mouse embryo lysates in Dignam buffer C, control (wt) embryos; Sufu-Gli3, Sufu-Kif7 and Tbx3-Spop also assayed in Tbx3 null (Tbx3 delta-fl/delta-fl, ko) embryos, where less Sufu-Gli3 and Sufu-Kif7 co-precipitated; 5-10 ug antibody overnight at 4 C, Protein-G Dynal beads, immunoblot, densitometry
[2] = molecular target: T3, Kif7, endogenous mouse protein (mouse (endogenous in E10.5 embryos)); assay: co-IP; as a4, but lysates of Tbx3 null (Tbx3 delta-fl/delta-fl, ko) E10.5 embryos; Kif7-Gli3 co-precipitate compared with control (wt) embryos by densitometry

| binding (Flag-tagged Kif7) | binding [1] | binding [2] | Binder |
| --- | --- | --- | --- |
| binds | – | – | Myc-tagged full length TBX3 (protein, UniProt P70324 1-741) MSLSMRDPVIPGTSMAYHPFLPHRAPDFAMSAVLGHQPPFFPALTLPPNGAAALSLPGALAKPIMDQLVGAAETGIPFSSLGPQAHLRPLKTMEPEEDVEDDPKVHLEAKELWDQFHKRGTEMVITKSGRRMFPPFKVRCSGLDKKAKYILLMDIIAADDCRYKFHNSRWMVAGKADPEMPKRMYIHPDSPATGEQWMSKVVTFHKLKLTNNISDKHGFTLAFPSDHATWQGNYSFGTQTILNSMHKYQPRFHIVRANDILKLPYSTFRTYLFPETEFIAVTAYQNDKITQLKIDNNPFAKGFRDTGNGRREKRKQLTLQSMRVFEERHKKETSDESSSEQAAFNCFAQASSPAVSIVGTSNLKDLCPSEAESDAEAESKEEHGPEACDAAKISTTTAEEPGRDKGSPATRAQLFPAEPSRARDTARLDKASPDSRHSPATISSSTRVPGADERRSPGREGPVATKVDEARAIPAKDAFAPLSVQTDATAHLAQGPLPGLGFAPGLAGQQFFNGHPLFLHPGQFAMGGAFSSMAAGMGPLLATVSGASTGVSGLESTAMASAAAAQGLSGASAATLPFHLQQHVLASQGLAMSPFGSLFPYPYTYMAAAAAASTAAASSSVHRHPFLNLNSMRPRLRYSPYSIPVPVPDSSSLLATALPSMASAAGPLDGKAAALAASPASVAVDSGSELNSRSSTLSSGSVSLSPKLCSEKEAATSELQSIQRLVSGLEAKPDRSCSGSP |
| – | binds | binds | full length Gli3 (Gli3FL), endogenous mouse protein (natural protein, mouse (endogenous in E10.5 embryos), UniProt Q61602 1-1583, looked up, Gli3 transcription factor, mouse, the unprocessed full length form (Gli3FL band on anti-Gli3 immunoblots); also called GliFL; source: endogenous, E10.5 mouse forelimb bud lysate or E10.5 whole embryo lysate (control or Tbx3 null)) MEAQAHSSTATERKKAENSIGKCPTRTDVSEKAVASSTTSNEDESPGQIYHRERRNAITMQPQSVQGLNKISEEPSTSSDERASLIKKEIHGSLPHLAEPSLPYRGTVFAMDPRNGYMEPHYHPPHLFPAFHPPVPIDARHHEGRYHYDPSPIPPLHVPSALSSSPTYPDLPFIRISPHRNPTAASESPFSPPHPYINPYMDYIRSLHSSPSLSMISAARGLSPTDAPHAGVSPAEYYHQMALLTGQRSPYADILPSAATAGAGAIHMEYLHAMDSTRFPSPRLSARPSRKRTLSISPLSDHSFDLQTMIRTSPNSLVTILNNSRSSSSASGSYGHLSASAISPALSFTYPSAPVSLHMHQQILSRQQSLGSAFGHSPPLIHPAPTFPTQRPIPGIPTVLNPVQVSSGPSESSQSKPTSESAVSSTGDPMHNKRSKIKPDEDLPSPGSRGQQEQPEGTTLVKEEADKDESKQEPEVIYETNCHWEGCTREFDTQDQLVHHINNDHIHGEKKEFVCRWLDCSREQKPFKAQYMLVVHMRRHTGEKPHKCTFEGCTKAYSRLENLKTHLRSHTGEKPYVCEHEGCNKAFSNASDRAKHQNRTHSNEKPYVCKIPGCTKRYTDPSSLRKHVKTVHGPEAHVTKKQRGDMHPRPPPPRDSGSHSQSRSPGRPTQGAFGEQKELSNTTSKREECLQVKTVKAEKPMTSQPSPGGQSSCSSQQSPISNYSNSGLELPLTDGGSVADLSAIDETPIMDSTISTATTALALQARRNPAGTKWMEHIKLERLKQVNGMFPRLNPILPSKAPAVSPLIGNGTQSNNNYSSGGPGTLLPSRSDLSGVDFTVLNTLNRRDSNTSTISSAYLSSRRSSGISPCFSSRRSSEASQAEGRPQNVSVADSYDPISTDASRRSSEASQGDGLPSLLSLTPVQQYRLKAKYAAATGGPPPTPLPHMERLSLKTKMALLGEGRDSGVTLPPVHPPRRCSDGGGHTYRGRHLMPHDALANSVRRASDPVRTVSENMSLARVQRFSSLNSFNPPNLPPSVEKRSLVLQNYTRQESSQPRYFQASPCPPSITENVALEALTMDADANLNDEDLLPDDVVQYLNSQNQTGYGQQLQSGISEDSKVAHEPEDLDLAGLPDSHVGQEYPALEQPCSEGSKTDLPIQWNEVSSGTSDLSSSKLKCGQQRPSAQQPRGFGLYNNMVVHPHNLWKVGTGPAGGYQTLGENSSTYNGPEHFAIHSGDGLGTNGNTFHEQPFKTQQYGSQLNRQPLTSSALDHACGTGIQGSKLKGNSLQENGGLLDFSLSVAPNELAGNTVNGMQTQDQMGQGYIAHQLLSGSMQHQGPSRPGQQVLGQVGATSHINIYQGTESCLPGTQDNSSQPSSMAAIRGYQPCASYGGNRRQAMPRGNLTLQQGQLSDMSQSSRVNSIKMEAQGQSQQLCSTVQNYSGQFYDQTMGFSQQDRKAGSFSLSDANCLLQGNGTENSELLSPGANQVTSTVDSFESHDLEGVQIDFDAIIDDGDHTSLMSGALSPSIIQNLSHSSSRLTTPRASLPFPSLSMGTTNMAIGDMSSLLTSLAEESKFLAVMQ |
